## Primary screen of a compound library

By UniProt entry, the sequences of proteins in these tests, tags left out.
UniProt E9BF75, entry or part of it: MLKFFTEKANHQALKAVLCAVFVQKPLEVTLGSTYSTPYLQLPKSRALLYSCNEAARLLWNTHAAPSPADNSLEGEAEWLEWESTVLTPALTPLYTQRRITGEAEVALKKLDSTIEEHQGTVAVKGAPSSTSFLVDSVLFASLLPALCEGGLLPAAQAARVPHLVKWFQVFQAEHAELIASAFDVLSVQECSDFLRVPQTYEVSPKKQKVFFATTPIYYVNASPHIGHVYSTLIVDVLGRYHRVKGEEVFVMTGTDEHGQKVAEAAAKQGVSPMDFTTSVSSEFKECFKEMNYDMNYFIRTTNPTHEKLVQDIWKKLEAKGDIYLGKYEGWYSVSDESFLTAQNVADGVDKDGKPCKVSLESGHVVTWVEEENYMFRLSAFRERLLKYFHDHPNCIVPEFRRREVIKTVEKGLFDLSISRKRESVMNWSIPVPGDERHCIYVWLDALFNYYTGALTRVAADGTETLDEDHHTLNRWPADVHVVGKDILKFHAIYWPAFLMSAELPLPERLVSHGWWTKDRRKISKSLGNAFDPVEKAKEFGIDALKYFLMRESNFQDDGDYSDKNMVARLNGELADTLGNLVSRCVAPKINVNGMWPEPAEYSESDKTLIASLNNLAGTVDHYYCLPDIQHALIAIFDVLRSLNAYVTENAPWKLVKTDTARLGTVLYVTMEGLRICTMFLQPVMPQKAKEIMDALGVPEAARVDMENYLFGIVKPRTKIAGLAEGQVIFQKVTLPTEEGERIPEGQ

Results are percentages, as filed.
How 0% and 100% were set is not recorded. Most values in the screen are low, and negative values occur.
The compounds are a random part of those screened.
A dash means the value is not listed here; it may have been measured.

Mtb heat-shock: 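Assay on Mycobacterium tuberculosis, filed only as a heat shock assay from Cornell; the read-out is not stated. The concentration is filed as 10 mM, unlikely as a test dose, so the dose is not known. Higher reads as stronger inhibition (inferred: compounds with an IC50 in retests scored well above the rest). About 69,000 compounds were tested under these conditions; 1.4% (about 930) showed 50% or more at least once.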
LdMetRS: 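Methionyl-tRNA synthetase (putative), Leishmania donovani (UniProt E9BF75). Primary screen of methionyl-tRNA synthetase; the read-out is not stated. The test concentration is not given. The values are filed as inhibition. Of about 68,000 compounds tested this way, about 24 (0.035%) reached 50% or more in at least one test.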
Mtb growth Cornell: 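Whole-cell assay for inhibitors of Mycobacterium tuberculosis growth, labelled Cornell in the record; the read-out is not stated. The concentration is filed as 10 mM, unlikely as a test dose, so the dose is not known. Higher means stronger inhibition (inferred from two other growth screens of the library). Of about 53,000 compounds tested this way, about 900 (1.7%) reached 50% or more in at least one test.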

SMILES,Mtb heat-shock,LdMetRS,Mtb growth Cornell
N#Cc1ccc(S(=O)(=O)NC(=O)c2csc(-c3ccco3)n2)cc1,-10.61,2.957,-
O=C(c1ccncc1)N1CCC(Oc2cccc(C(F)(F)F)c2)CC1,3.62,21.58,33.85
CCc1ccc(-c2cn3c(C(=O)N[C@H](C(N)=O)[C@@H](C)O)csc3n2)cc1,-10.93,-3.971,8.719
CC(NC(=O)NC1CCN(Cc2ccncc2)CC1)c1ccc(F)cc1 (stereo not drawn),-18.79,9.422,-10.34
Cc1cc(C(=O)N2CC[C@]3(C[C@@H](OCc4ccccn4)CO3)C2)c(C)o1,-,-2.985,-
O=C(CN1CCCC(Cn2cncn2)C1)NCc1ccccc1F (stereo not drawn),-2.31,22.83,-4.706
[H][C@@]12CN(C(=O)NC3CCCC3)C[C@]1(C(=O)O)CN(c1ccccn1)C2,-132.4,-,-
CC1CN(C(=O)NCc2ccn(C)c2)CCN1CC(F)(F)F (stereo not drawn),-15.84,13.71,29.95
O=C(NCCNc1cc(-n2cccc2)ncn1)c1cccs1,13.02,12.95,57.48
CCN1CCn2c(C)cnc2C12CCN(C(=O)Cc1ccccc1)CC2.O=C(O)C(F)(F)F.O=C(O)C(F)(F)F,-15.82,-,-21.42
Cc1csc2ncc(-c3ccnc(N4CCC[C@H](C(N)=O)C4)n3)c(=O)n12,-35.62,10.44,-41.72
c1ccc(CCNCC2Cn3nncc3CO2)cc1 (stereo not drawn),-,7.268,-
CO[C@@H]1CC[C@H]2[C@H]1OCCN2CCOCc1ccccc1,-,6.723,-
O=C(NCCCO)C1(N2CCCCC2)Cc2ccccc2C1,-2.859,1.681,8.073
CCNC(=O)[C@@H]1C[C@@H](N)CN1C(=O)Cc1cc(C)ccc1C,0.9355,6.704,7.09
O=C1CC2(CCN(S(=O)(=O)C3CC3)C2)CN1c1cncnc1 (stereo not drawn),24.72,12.13,7.048
c1cnn(CC2CCCN2c2ncnc3ccsc23)c1 (stereo not drawn),31.35,11.11,17.07
[H][C@@]12CS(=O)(=O)C[C@]1([H])N(Cc1ccc(Cl)cc1)CCN2CCOC,5.757,-,-
COc1ccccc1CC1CCN(C(=O)CCc2ccccn2)CC1,-5.466,20.39,16.46
O=C(NCc1ccc(F)cc1)C1CCCN(c2ccc3nncn3n2)C1 (stereo not drawn),-16.16,7.645,-34.51
Cc1cc(C)n(C2CN(CCc3ccccn3)C2)n1,-18.26,9.859,-5.252
Cc1noc(C)c1CN(C)C(=O)NC1CCCN(S(C)(=O)=O)C1 (stereo not drawn),-4.393,14.21,-
O=C(CCn1nc(C(F)(F)F)c(Br)c1C1CC1)NN1CCOCC1,-19.83,14.73,12.94
CC(C)(C)n1ncc2c(=O)n(CC(=O)NCc3ccccc3Cl)cnc21,23.11,3.597,-10.13
COC(=O)c1ccc(CN2CCN(Cc3nc(C)no3)CC2)s1,-19.94,-7.163,15.73
Cc1nccc(N2CCCC(C)(C(=O)NC3CCCC3)C2)n1 (stereo not drawn),-9.112,5.806,-14
COc1ccccc1C1=NOC(CC2(C(=O)NCCO)CCOCC2)C1 (stereo not drawn),-20.44,7.074,-28.97
CCc1nc(Cn2nc(COC)oc2=O)cs1,23.16,10.08,4.158
Cc1ccc(OC2(C(=O)NC(C)c3csc(C)n3)CCNCC2)cc1 (stereo not drawn),-29.41,13.12,-22.98
CC(C)(C)CCS(=O)(=O)NCCc1csc(N2CCCC2)n1,-17.1,16.16,-
[H][C@@]12C[C@H](C(=O)N3CCOCC3)[C@@]([H])(CN(S(C)(=O)=O)C1)O2,9.276,-,21.08
COc1ccc(CN2CCCn3cncc3C2)cc1Cn1cncn1,-11.15,-,-
CC(C)NC(=O)CN(C)C(=O)c1c(Br)c2ccccc2n1C,10.97,13.09,27.06
CNC(=O)CN1C(=O)CCC12CCCN(Cc1cccc(F)c1)C2 (stereo not drawn),-,10,-
Cc1nc(C2CCCN(C(=O)c3ccc(Cl)cn3)C2)no1 (stereo not drawn),12.63,9.036,-
C[C@@H]1CN(C(=O)Nc2cccc(OC(F)F)c2)CC(C(N)=O)O1 (stereo partly drawn),-7.615,11.52,6.402
Cc1cccc2[nH]c(C3CCCN3Cc3ccc(CO)o3)nc12 (stereo not drawn),19.58,11.57,3.877
CC(C)c1noc(CCCC(=O)N2CCC(Cc3cccnc3)CC2)n1,5.631,2.347,8.389
CN1CC2(CCCN(Cc3nnc(-c4ccco4)o3)CC2)OC1=O (stereo not drawn),1.354,13.12,-16.08
O=C(O)C(F)(F)F.[H][C@@]12C[C@@H](c3nc(C4CC4)cs3)O[C@]1([H])CN(C(=O)c1cnccn1)C2,1.274,-,18.88

For reference, 2 entries once more:

| SMILES | Mtb heat-shock | LdMetRS | Mtb growth Cornell |
|---|---|---|---|
| `c1ccc(CCNCC2Cn3nncc3CO2)cc1` (stereo not drawn) | - | 7.268 | - |
| `Cc1ccc(OC2(C(=O)NC(C)c3csc(C)n3)CCNCC2)cc1` (stereo not drawn) | -29.41 | 13.12 | -22.98 |

The values are deposited in ChEMBL (CHEMBL3988442, “University of Dundee, Small-Polar-MMV Screening Library” (2021)).